Experimental data reported in PubChem BioAssay AID2685 (National Center for Advancing Translational Sciences (NCATS), 2010).
About 2,100 (0.66%) of roughly 320,000 compounds were called active. Inconclusive means that the source gave no clear call. Such entries were picked first, then a sample of the others. Calls come from the whole dose curve; as a rule, active = well fitted inhibition curve with a large enough effect in the signal ratio, with a control signal flat (not every such curve was filed as active); inconclusive = small, poorly fitted or top-dose-only effect, or effect the other way, or a change in a side signal; inactive = flat fitted curve, though single readings scatter; the % refers to the signal ratio. Potencies beside an inconclusive call are fits to weak or partial responses and may not hold up.
% is set by controls: 0 for no effect and ±100 for the full control effect; potency is the fitted concentration of half-maximal effect.

Experiment: qHTS Assay for Lipid Storage Modulators in Drosophila S3 Cells
Details: BODIPY lipid droplet fluorescence, 18-24 h, cells fed with added oleic acid; lipid storage change, negative = inhibition: at 46.1 µM (top of the series) unless noted
Summary of the method: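 Drosophila S3 cells got compounds at several concentrations plus oleic acid (400 uM solution). Laser-scanning cytometry with 488 nm excitation read lipid droplets at 500-530 nm and cells at 575-640 nm. Percent activity was relative to 20 uM Triacsin C.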
With `CCCNC(=O)/C(C#N)=C1\N=C(NC(=O)c2ccco2)c2ccccc21` the Potency was inconclusive: 20.6 µM [falling, single point]. For `Cc1ccc(SC[C@H](C)CN2CC[C@H](NC(=O)OCc3ccccc3)CCC2=O)cc1`, the lipid storage change, negative = inhibition was inconclusive: -55.4%. In the case of `O=C(NC(Cc1ccccc1)C(=O)NCCc1ccccn1)c1cccs1` (stereo unspecified), the lipid storage change, negative = inhibition was inconclusive: 5.44%. With `O=C(CSc1nnnn1-c1ccc2c(c1)OCCO2)Nc1nc2c(s1)CCCC2` the Potency was inconclusive: 20.6 µM [activator, single point]. In the case of `CC1CCc2c(c3ccccc3n2C(=O)CCl)C1` (stereo unspecified), the lipid storage change, negative = inhibition was inconclusive: -73.2%. With `CC12C(=O)N(NC(=O)c3ccncc3)C(=O)C1C1C=CC2C1` (stereo unspecified) the lipid storage change, negative = inhibition was “inactive”. In the case of `CCOc1ccccc1OCc1nn2c(-c3ccc(C)cc3)nnc2s1`, the lipid storage change, negative = inhibition was inconclusive: 96.3%. In the case of `O=C1N/C(=C\c2ccc(O)cc2)C(=O)c2ccccc21`, the lipid storage change, negative = inhibition was inconclusive: 42.5%. For `COc1ccc(N(CC(=O)Nc2ccccc2OC)S(=O)(=O)c2ccc(OC)c(OC)c2)cc1`, the lipid storage change, negative = inhibition was inconclusive: 86.9%. In the case of `COc1ccc(C(=O)n2nc(-c3ccc(C)cc3)nc2N)cc1OC`, the lipid storage change, negative = inhibition was inconclusive: -0.823%. With `O=C(CCC(=O)c1cccs1)OCC(=O)N1CCN(C(=O)c2ccco2)CC1` the lipid storage change, negative = inhibition was inconclusive: -35.8%. In the case of `Cc1ccc(C)c(N2CCN(C(=O)c3ccc(Cl)c(NC4=NC5CS(=O)(=O)CC5S4)c3)CC2)c1` (stereo unspecified), the Potency was inconclusive: 32.6 µM [falling, single point]. With `O=C1c2ccccc2C(=O)N1CCN1CCc2ccccc21` the lipid storage change, negative = inhibition was inconclusive: 15.7%. For `COC(=O)c1ccc(Oc2c(F)c(F)nc(N3CCOCC3)c2F)cc1`, the lipid storage change, negative = inhibition was inconclusive: -27.1%. In the case of `CCOC(=O)c1cc2c(=O)n3ccccc3nc2n(CC2CCCO2)c1=NC(=O)/C=C/c1ccccc1` (stereo unspecified), the Potency was inconclusive: 2.06 µM [activator, partial curve, poor fit]. With `CC(C)CSC1=NSC2=NC(=O)/C(=C\c3coc4ccccc4c3=O)C(=N)N12` the Potency was inconclusive: 29.1 µM [falling, single point]. For `CCOC(=O)c1cnc(SCc2nc(N)nc(Nc3ccccc3)n2)nc1N`, the Potency was inconclusive: 8.2 µM [activator, partial curve, poor fit]. For `CCOC(=O)c1sc(NC(=O)CSc2ccccn2)c(C#N)c1C`, the lipid storage change, negative = inhibition was inconclusive: -0.0648%. With `CCC(C)N(CC(=O)NCc1ccc(OC)cc1)C(=O)c1csnn1` (stereo unspecified) the Potency was inconclusive: 2.31 µM [falling, partial curve, poor fit]. In the case of `O=C(O)c1c[nH]c(=O)c2ccccc12`, the lipid storage change, negative = inhibition was inconclusive: -18.8%. In the case of `Cn1c(=O)[nH]c(=O)c2c1nc(Br)n2C/C=N/NC(=O)c1ccccc1`, the lipid storage change, negative = inhibition was inconclusive: -41.9%. For `COc1ccc(C(C)=O)cc1COC(=O)c1ccc2c(c1)OCO2`, the lipid storage change, negative = inhibition was inconclusive: 15.1%. With `O=C1/C(=C/c2cccnc2)SC(=NCc2ccccc2)N1Cc1ccccc1` the lipid storage change, negative = inhibition was inconclusive: 88.3%. In the case of `Cc1ccc(CCNC(=O)C2CCCN(C(=O)N(C)C)C2)cc1` (stereo unspecified), the lipid storage change, negative = inhibition was inconclusive: 7.65%. In the case of `COc1cc2ccccc2cc1C(=O)N(CCN(C)C)c1nc2c(OC)ccc(OC)c2s1`, the lipid storage change, negative = inhibition was inconclusive: -64.8%. In the case of `CCOC(=O)C1=C(C)NC(=O)NC1c1ccc(OCC(=O)OC)c(OC)c1` (stereo unspecified), the lipid storage change, negative = inhibition was inconclusive: 16.5%. In the case of `O=C1CN(C(=O)COC(=O)Cc2ccsc2)c2ccccc2N1`, the lipid storage change, negative = inhibition was “inactive”. In the case of `Cn1c(=NC(=O)c2cnccn2)sc2ccccc21`, the Potency was inconclusive: 29.1 µM [activator, single point]. In the case of `Cc1ccc(NC2=NC(c3ccc(C)cc3)n3c(nc(C)cc3=O)N2)cc1` (stereo unspecified), the Potency was inconclusive: 29.1 µM [activator, single point]. With `c1ccc(-c2cc3c(NCC4COc5ccccc5O4)ncnc3s2)cc1` (stereo unspecified) the lipid storage change, negative = inhibition was inconclusive: -97.1%. For `CCCCc1nc2ccc(S(=O)(=O)O)cc2[nH]1`, the lipid storage change, negative = inhibition was inconclusive: -26.1%. With `O=C(O)CCc1ccc(-c2ccccc2)n1-c1ccc(C(=O)O)cc1` the lipid storage change, negative = inhibition was inconclusive: -21.6%. With `COc1ccc(C2SCC(=O)N2c2nnc(C34CC5CC(CC(C5)C3)C4)s2)cc1` (stereo unspecified) the lipid storage change, negative = inhibition was inconclusive: 18.6%. With `COc1cc(OC)cc(C(=O)NNC(=O)CN2C(=O)NC3(CCCC3)C2=O)c1` the lipid storage change, negative = inhibition was inconclusive: 18.7%. In the case of `Cc1cc(N=Nc2ccc3ccccc3c2)ccc1O`, the lipid storage change, negative = inhibition was inconclusive: -100%. With `CC1CCCc2sc3nc(N4CCN(CCO)CC4)n4ncnc4c3c21` (stereo unspecified) the Potency was inconclusive: 0.146 µM [falling, full curve, poor fit]. In the case of `COc1cc2c(cc1OC)C(C)N(S(=O)(=O)c1cn(C)cn1)CC2` (stereo unspecified), the lipid storage change, negative = inhibition was inconclusive: -10.4%. In the case of `O=C1OC(OC(=O)c2ccccc2Br)C(N2CCOCC2)=C1Cl` (stereo unspecified), the Potency was inconclusive: 4.11 µM [falling, full curve]. With `COc1ccccc1-c1nn(Cc2ccccc2)cc1/C=C/C(=O)O` the lipid storage change, negative = inhibition was inconclusive: -27.1%. For `Cn1c(N)c(Sc2ccccc2[N+](=O)[O-])c(=O)n(C)c1=O`, the lipid storage change, negative = inhibition was inconclusive: 3.85%. For `CS(=O)(=O)N(CC(=O)NCCC1=CCCCC1)C1CCCCC1`, the Potency was inconclusive: 0.259 µM [falling, partial curve, poor fit]. With `FC(F)Oc1ccc(-n2cc(-c3ccccc3)[n+]3c2CCCCC3)cc1` the lipid storage change, negative = inhibition was inconclusive: 3.31%. In the case of `COc1cccc(CNC(=O)C2CCCN(S(=O)(=O)c3ccc4c(c3)C(C)(C)C(=O)N4C)C2)c1` (stereo unspecified), the lipid storage change, negative = inhibition was inconclusive: 24.8%. In the case of `Cc1cccc(NC(=O)N2CCCC(CNC(=O)c3ccccc3Cl)C2)c1C` (stereo unspecified), the Potency was active: 20.6 µM. For `COC(=O)c1ccc(CSc2nc3sc(C(=O)O)c(C)c3c(=O)[nH]2)cc1`, the lipid storage change, negative = inhibition was inconclusive: -1.4%. With `CCN(CC)S(=O)(=O)c1ccc(NC2c3ncccc3C(=O)N2Cc2ccccc2)cc1` (stereo unspecified) the lipid storage change, negative = inhibition was inconclusive: -26.1%. For `COc1cccc(OC)c1OCCCSc1nc(C)cc(=O)[nH]1`, the Potency was inconclusive: 16.4 µM [activator, single point]. For `CC(=O)c1ccc(NC(=O)CSc2nnc3ccc(-c4ccccn4)nn23)cc1`, the lipid storage change, negative = inhibition was “inconclusive”. In the case of `O=C(Cn1ccn(-c2ccc(F)c(Cl)c2)c(=O)c1=O)NCCc1ccccc1`, the lipid storage change, negative = inhibition was inconclusive: 46.7% [at 0.0737 µM]. In the case of `COc1ccc(OC)c(NC(=O)Nc2cnccn2)c1`, the Potency was inconclusive: 29.1 µM [falling, single point]. With `Cc1cc([N+](=O)[O-])cnc1NC(C)c1ccccc1` (stereo unspecified) the lipid storage change, negative = inhibition was inconclusive: -2.92%. In the case of `Fc1ccc(C2CC(c3ccccc3)Nc3ncnn32)cc1` (stereo unspecified), the lipid storage change, negative = inhibition was inconclusive: 1.13%. With `COc1cccc(CN(CC(=O)NC2CCCCC2)C(=O)c2csnn2)c1` the Potency was inconclusive: 0.291 µM [falling, single point]. In the case of `CSc1cccc(NS(=O)(=O)c2ccc3c(c2)oc(=O)n3C)c1`, the lipid storage change, negative = inhibition was inconclusive: 0.68%. In the case of `COCCNCC#CCOc1ccc(OC)cc1`, the lipid storage change, negative = inhibition was inconclusive: 2.22%. In the case of `CCCCN(C(=O)CN1C(=O)C2CC=CCC2C1=O)c1c(N)n(CCC)c(=O)[nH]c1=O` (stereo unspecified), the lipid storage change, negative = inhibition was inconclusive: -87.3%. With `CS(=O)(=O)/C(C#N)=C/c1cccn1S(=O)(=O)c1ccccc1` the Potency was inconclusive: 0.92 µM [falling, full curve]. In the case of `CCN1CCN(c2ccc(NC(=O)c3ccc(Cl)c(S(=O)(=O)N4CCCC4)c3)cc2)CC1`, the Potency was inconclusive: 0.517 µM [falling, single point]. For `Cc1ccc(C(=O)NC(C)c2ccccc2)cc1S(=O)(=O)N1CCOCC1` (stereo unspecified), the lipid storage change, negative = inhibition was inconclusive: -6.25%. In the case of `CCCCN(C(=O)c1cccc(S(=O)(=O)N2CCN(Cc3ccccc3)CC2)c1)c1ccccc1`, the lipid storage change, negative = inhibition was inconclusive: 17.4%. With `Cc1cccc(NC(=S)N2CCN(S(=O)(=O)c3ccc(F)cc3)CC2)c1` the lipid storage change, negative = inhibition was inconclusive: 13.7%. For `COc1ccc(C2/C(=C(\O)c3ccc4c(c3)OCCO4)C(=O)C(=O)N2c2nc(C)c(C(C)=O)s2)cc1` (stereo unspecified), the Potency was inconclusive: 3.66 µM [falling, full curve]. In the case of `O=S(=O)(/N=C(/Nc1ccc(F)cc1F)c1ccccc1)c1ccccc1`, the lipid storage change, negative = inhibition was inconclusive: -8.63%. For `COc1ccc(OCC(=O)N/N=C/C=C/c2ccccc2)cc1`, the lipid storage change, negative = inhibition was inconclusive: 28.6%. With `Cc1ccc(S(=O)(=O)CC(=O)NCc2ccc(Cl)cc2)cc1` the Potency was inconclusive: 0.291 µM [falling, full curve]. For `COc1cccc(NC(=S)N(Cc2ccccn2)Cc2ccccc2Cl)c1`, the lipid storage change, negative = inhibition was inconclusive: -11.9%. For `O=C(NCc1cccnc1)/C(=C/c1ccc(Cl)cc1)NC(=O)c1ccccc1`, the lipid storage change, negative = inhibition was inconclusive: -46.5%. For `COc1ccccc1-c1n[nH]c(=S)o1`, the lipid storage change, negative = inhibition was inconclusive: 2.67%. In the case of `C=CCN1CN=C(NS(=O)(=O)c2ccc(NC(C)=O)cc2)NC1`, the lipid storage change, negative = inhibition was inconclusive: -11.7%. With `CN(C)C(CNC(=O)CSc1nnc(-c2ccco2)o1)c1ccccc1` (stereo unspecified) the lipid storage change, negative = inhibition was inconclusive: 0.801%. With `O=C(CSc1nnc(-c2ccccn2)n1-c1ccccc1)Nc1ccc2c(c1)OCO2` the Potency was inconclusive: 0.146 µM [activator, full curve, poor fit]. In the case of `Cn1c(CNC(=O)C2CCCCC2)cc2cc(Cl)ccc21`, the Potency was inconclusive: 2.31 µM [falling, single point]. For `COc1ccc(NC(=O)c2cc3c([nH]c4ccccc43)c(C)n2)cc1`, the Potency was inconclusive: 0.13 µM [rising, full curve, poor fit]. For `COc1ccccc1-c1cc(C(=O)N2CCN(c3ccc(F)cc3)CC2)no1`, the Potency was inconclusive: 3.26 µM [activator, partial curve]. In the case of `O=S(=O)(CCc1nc2ccccc2o1)c1ccc(Cl)cc1`, the lipid storage change, negative = inhibition was inconclusive: 14.9%. In the case of `Cc1ccc(NC(=S)NC2CC3CCCC(C2)N3Cc2ccco2)cc1` (stereo unspecified), the lipid storage change, negative = inhibition was inconclusive: -67.5%.
